Reference: PubChem BioAssay AID1487 (National Center for Advancing Translational Sciences (NCATS), 2009)
Some of the results follow. Shown are side measurements of this screen, not its main read-out; they come without a call. Compounds called inactive in the main read-out are mostly missing here. The note in brackets gives the kind of curve behind each potency; many fits are weak.

Assay: qHTS Assay for Modulators of Lamin A Splicing
Conditions: HeLa LMNA splicing GFP/RFP minigene ratio, 48 h
In short: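 S3 HeLa stable clones carrying a lamin A-EGFP splicing minigene plus DsRed2 were seeded at 600 cells/well in Opti-MEM with 2% FBS, pin-dosed and incubated 48 h at 37°C. Acumen cytometry (488 nm) gave the GFP/RFP total-intensity ratio.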

[1] = measured here: RFP viability control channel
[2] = measured here: GFP splicing reporter channel

Row | SMILES | AC50 [1] | AC50 [2]
1 | O=C(CN1C(=O)COc2ccccc21)N1CCc2ccccc21 | 15.8 µM [rising, single point] | 
2 | CCOC(=O)c1cnc2ccc(OC)cc2c1NCc1ccccc1 | 20 µM [rising, partial curve, poor fit] | 3.55 µM [rising, single point]
3 | CC(=O)c1ccc(N2CCN(C(=O)C3CCN(S(=O)(=O)Cc4ccccc4)CC3)CC2)cc1 | 14.1 µM [rising, partial curve] | 
4 | Cc1ccc(CN2CCc3c(OCC(=O)Nc4cc(C)ccc4C)cccc3C2=O)cc1 | 11.2 µM [rising, partial curve] | 
5 | CCOC(=O)c1c(S(=O)(=O)N2CCC(C(=O)NCc3cccc(OC)c3)CC2)c(C)n(C)c1C | 5.01 µM [falling, single point] | 
6 | CC#CCN1c2ccccc2[C@]23C[C@@H](C(=O)OC)N(S(=O)(=O)c4ccc(C(F)(F)F)cc4)C2=NC(C(=O)OC)=C(C(=O)OC)[C@H]13 | 3.16 µM [rising, single point] | 0.0316 µM [rising, full curve, poor fit]
7 | Cc1ccc(-n2nnnc2SCC(=O)Nc2ccccc2N2CCCCC2)cc1C | 12.6 µM [rising, partial curve] | 0.891 µM [rising, full curve, poor fit]
8 | CCc1ccc(-c2cc(C(=O)NN3CCOCC3)c3ccccc3n2)cc1 | 2.82 µM [rising, full curve, poor fit] | 
9 | Cc1ccc(OCC(=O)N/N=C\c2c(C)[nH]n(-c3ccccc3)c2=O)c([N+](=O)[O-])c1 | 7.94 µM [rising, partial curve, poor fit] | 
10 | COc1ccc(C(=O)c2cc(C(C)=O)c(Nc3ccccc3)s2)cc1 | 10 µM [rising, partial curve, poor fit] | 
11 | CCN1CCc2c(sc(NC(=O)c3ccc(S(=O)(=O)N4CCCC(C)C4)cc3)c2C(=O)OC)C1 (centres undefined) | 11.2 µM [falling, partial curve, poor fit] | 0.158 µM [falling, full curve, poor fit]
12 | CC1CC(C)CN(CC(=O)N2CCCc3c2c(=O)oc2ccc(OCc4ccccc4)cc32)C1 (centres undefined) | 31.6 µM [rising, single point] | 
13 | CC1CCCCC1NC(=O)c1ccc2c(c1)[nH]c(=O)n2C1CCCC1 (centres undefined) | 35.5 µM [rising, single point] | 
14 | O=S1(=O)c2ccccc2N(Cc2ccccc2F)c2ccccc21 | 0.0891 µM [rising, full curve, poor fit] | 
15 | CC(C)(C)c1ccc(CN2N=Nc3ccccc3S2(=O)=O)cc1 | 10 µM [falling, partial curve] | 10 µM [falling, partial curve]
16 | O=C(Cc1ccc(Cl)cc1)Nc1ccncc1 |  | 11.2 µM [falling, partial curve, poor fit]
17 | O=C(/C=C/c1cccc([N+](=O)[O-])c1)NCCSCc1ccco1 |  | 8.91 µM [rising, partial curve, poor fit]

A draw from above in order of number of heavy atoms, ascending:
Row | SMILES | AC50 [1] | AC50 [2]
1 | O=C(CN1C(=O)COc2ccccc21)N1CCc2ccccc21 | 15.8 µM [rising, single point] | 
13 | CC1CCCCC1NC(=O)c1ccc2c(c1)[nH]c(=O)n2C1CCCC1 (centres undefined) | 35.5 µM [rising, single point] | 
8 | CCc1ccc(-c2cc(C(=O)NN3CCOCC3)c3ccccc3n2)cc1 | 2.82 µM [rising, full curve, poor fit] | 
3 | CC(=O)c1ccc(N2CCN(C(=O)C3CCN(S(=O)(=O)Cc4ccccc4)CC3)CC2)cc1 | 14.1 µM [rising, partial curve] | 
12 | CC1CC(C)CN(CC(=O)N2CCCc3c2c(=O)oc2ccc(OCc4ccccc4)cc32)C1 (centres undefined) | 31.6 µM [rising, single point] | 
6 | CC#CCN1c2ccccc2[C@]23C[C@@H](C(=O)OC)N(S(=O)(=O)c4ccc(C(F)(F)F)cc4)C2=NC(C(=O)OC)=C(C(=O)OC)[C@H]13 | 3.16 µM [rising, single point] | 0.0316 µM [rising, full curve, poor fit]

Later entries.

Row | SMILES | AC50 [1] | AC50 [2]
18 | COc1ccc(CCNC(=O)c2ccc(-n3c(C)cc4c3CCC(C)C4)cc2)cc1OC (centres undefined) | 10 µM [falling, partial curve] | 
19 | C=CCS(=O)(=O)c1nc2ccccc2s1 | 10 µM [falling, partial curve] | 7.08 µM [falling, full curve]
20 | Cc1ccc(S(=O)(=O)N/N=C\c2cccnc2)cc1 |  | 17.8 µM [falling, single point]
21 | CCN(CC(=O)NCc1cccs1)C(=O)c1ccccc1F | 0.0178 µM [falling, full curve, poor fit] | 
22 | CCCCN(CCCC)/C(N)=N/c1nc(C)cc(C)n1 |  | 0.447 µM [falling, full curve, poor fit]
23 | COC(=O)C1=C(C)N(CCc2cc(OC)c(OC)c(OC)c2)C(=O)N[C@H]1c1ccc(Br)cc1 | 35.5 µM [rising, single point] | 35.5 µM [rising, single point]
24 | Cc1ccc(NC(=O)CN(C)S(=O)(=O)c2cccc3nsnc23)cc1Cl | 20 µM [rising, partial curve, poor fit] | 
25 | CCOc1cc(/C=C(\C#N)C(=O)NCc2cccnc2)ccc1O | 1.12 µM [falling, full curve, poor fit] | 2 µM [falling, partial curve]
26 | CC(=O)Nc1ccc(N2S(=O)(=O)c3ccccc3S2(=O)=O)cc1 | 14.1 µM [rising, single point] | 
27 | O=C(c1cccc(S(=O)(=O)N2CCCC2)c1)c1nnc(-c2ccncc2)o1 | 0.0398 µM [rising, full curve, poor fit] | 0.0282 µM [rising, partial curve, poor fit]
28 | C=CCn1c(SC(C)C(=O)NCc2ccc3c(c2)OCO3)nnc1C1CCCCC1 (centres undefined) |  | 12.6 µM [rising, single point]
29 | NC(=O)N1c2ccccc2C=Cc2ccccc21 | 0.00398 µM [falling, full curve, poor fit] | 17.8 µM [falling, partial curve, poor fit]
30 | Cc1nn(-c2ccccc2)c(Cl)c1/C=C/C(=O)c1ccc(O)cc1 | 35.5 µM [falling, single point] | 35.5 µM [falling, single point]
31 | Cc1ccc2cccnc2c1N | 31.6 µM [falling, partial curve, poor fit] | 0.0224 µM [falling, full curve, poor fit]
32 | COc1ccc(N2CCN(C(=O)CSc3ncccc3-c3nc4ccccc4[nH]3)CC2)cc1 | 31.6 µM [rising, single point] | 14.1 µM [rising, single point]
33 | N/C(Cc1cccc2ccccc12)=N\OC(=O)Cc1cccs1 | 31.6 µM [rising, single point] | 14.1 µM [rising, single point]
34 | Cc1ccc(-c2ccc(=O)[nH]n2)cc1 | 22.4 µM [falling, partial curve] | 15.8 µM [falling, partial curve]
